PubChem BioAssay AID1224830 – NIAID – 2016
This is one part, drawn at random, of about 18,000 deposited reagents. About 2,900 of all reagents (16%) count as active. 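Calls are made per well; low scores hint the gene aids the LPS response, high scores that it dampens it.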 A number with no mark means an inactive call. Repeated entries: four replicate wells of each siRNA pool.

Assay: 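Regulators of TLR4 signalling towards TNF-alpha in macrophage-like cells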 (primary screen)
System: human THP-1 monocytic leukaemia cells, TNF dual-luciferase reporter clone, PMA-differentiated to macrophage-like cells
Knock-down reagent: siRNA pool against human genes, 50 nM
Timing: LPS for 4 h, given about 3 days after siRNA transfection
Treatment: bacterial LPS (TLR4 ligand), 10 ng/ml
Measured: 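TNF firefly reporter luminescence divided by renilla, normalised to the plate median, then turned into a robust z-score for each replicate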
Direction: TNF reporter robust z-score: higher = stronger TNF reporter response to LPS
Hit rule: 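Each well counts as active if its z-score is over 2.8 or under -1.5; controls are left without a call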

| gene knocked down | TNF reporter robust z-score |
| --- | --- |
| LAD1 | 0.49 |
| LAD1 | 2.03 |
| LAD1 | 1.38 |
| LAD1 | 2.05 |
| ECHS1 | -0.19 |
| ECHS1 | 0.22 |
| ECHS1 | 0.07 |
| ECHS1 | 1.57 |
| ZNF761 | 0.48 |
| ZNF761 | 0.29 |
| ZNF761 | 0.59 |
| ZNF761 | -0.01 |
| TMEM31 | -0.62 |
| TMEM31 | -0.54 |
| TMEM31 | -0.72 |
| TMEM31 | -0.18 |
| TPH1 | 0 |
| TPH1 | 0.8 |
| TPH1 | -0.94 |
| TPH1 | 0.21 |
| KBTBD8 | -0.01 |
| KBTBD8 | -0.94 |
| KBTBD8 | -0.28 |
| TRIML2 | -0.25 |
| TRIML2 | -0.72 |
| TRIML2 | -0.99 |
| TRIML2 | -1.03 |
| FOXA2 | 0.07 |
| FOXA2 | -0.14 |
| FOXA2 | -0.78 |
| FOXA2 | 1.14 |
| CAVIN4 | -0.8 |
| CAVIN4 | 0.24 |
| CAVIN4 | 0.1 |
| CAVIN4 | -0.92 |
| EXD1 | 0.42 |
| EXD1 | -0.62 |
| EXD1 | -0.13 |
| EXD1 | -0.54 |
| CEBPD | -1.17 |
| CEBPD | -0.97 |
| CEBPD | -1.2 |
| CEBPD | -0.83 |
| CHST11 | 0.96 |
| CHST11 | 1.91 |
| CHST11 | 0.89 |
| CHST11 | 1.6 |

The list goes on, starting with the last 10 of the part before.
| gene knocked down | TNF reporter robust z-score |
| --- | --- |
| EXD1 | -0.13 |
| EXD1 | -0.54 |
| CEBPD | -1.17 |
| CEBPD | -0.97 |
| CEBPD | -1.2 |
| CEBPD | -0.83 |
| CHST11 | 0.96 |
| CHST11 | 1.91 |
| CHST11 | 0.89 |
| CHST11 | 1.6 |
| ATCAY | 4.61 (active) |
| ATCAY | 0.47 |
| ATCAY | -0.14 |
| ATCAY | 1.05 |
| OXGR1 | -0.78 |
| OXGR1 | -0.27 |
| OXGR1 | -0.61 |
| OXGR1 | -0.65 |
| XYLT2 | 0.2 |
| XYLT2 | 0.54 |
| XYLT2 | 0.09 |
| XYLT2 | 0.51 |
| SLC35F2 | -1.58 (active) |
| SLC35F2 | -0.29 |
| SLC35F2 | -0.9 |
| SLC35F2 | -1.1 |
| WDR7 | 0.11 |
| WDR7 | -0.22 |
| WDR7 | 0.78 |
| WDR7 | -0.2 |
| CMSS1 | 0.78 |
| CMSS1 | 1.28 |
| CMSS1 | 0.97 |
| CMSS1 | 1.1 |
| ZNF680 | 0.88 |
| ZNF680 | 1.8 |
| ZNF680 | 1.44 |
| ZNF680 | -1.04 |
| KRT81 | -0.93 |
| KRT81 | -1 |
| KRT81 | -0.44 |
| KRT81 | -1.06 |
| VRK3 | -0.76 |
| VRK3 | -0.86 |
| VRK3 | -0.45 |
| VRK3 | 0.2 |
| DLGAP1 | -0.16 |
| DLGAP1 | 0.79 |
| DLGAP1 | 0.41 |
| DLGAP1 | 1.27 |
| MS4A6E | -0.21 |
| MS4A6E | 2.27 |
| MS4A6E | 1.6 |
| MS4A6E | 1.18 |
| ACRV1 | -1.73 (active) |
| ACRV1 | -1.18 |
| ACRV1 | -1.72 (active) |
| ACRV1 | -0.61 |
| SIX2 | -1.1 |
| SIX2 | -1.2 |
| SIX2 | -1.24 |
| SIX2 | -0.85 |
| DEFB106B | 0.28 |
| DEFB106B | 0.08 |
| DEFB106B | 0.7 |
| DEFB106B | 0.4 |
| CDH6 | -0.19 |
| CDH6 | -0.38 |
| CDH6 | -0.84 |
| CDH6 | -0.45 |
| LIFR | 0.22 |
| LIFR | 0.61 |
| LIFR | 0.07 |
| LIFR | 0.5 |
| SEC31A | 2.74 |
| SEC31A | 4.9 (active) |
| SEC31A | 2.15 |
| SEC31A | -0.41 |
| PCYOX1 | -0.13 |
| PCYOX1 | 1.36 |
| PCYOX1 | 2.04 |
| PCYOX1 | 0.29 |
| CHTOP | -1.54 (active) |
| CHTOP | -1.21 |
| CHTOP | -1.11 |
| CHTOP | -1.67 (active) |
| PRPF31 | -1.58 (active) |
| PRPF31 | -0.19 |
| PRPF31 | -0.76 |
| SFRP1 | -0.38 |
| SFRP1 | -0.53 |
| SFRP1 | -0.39 |
| SFRP1 | -0.22 |
| IRS4 | -0.53 |
| IRS4 | 0.3 |
| IRS4 | 0.09 |
| IRS4 | -0.14 |
| GTF2E2 | -0.7 |
| GTF2E2 | -0.03 |
| GTF2E2 | -0.45 |
| GTF2E2 | 0.25 |
| ZNF740 | 0.48 |
| ZNF740 | 0.35 |
| ZNF740 | 0.54 |
| ZNF740 | 1.09 |
